The target in this test is S1P1/EDG1 (Homo sapiens, UniProt P21453). Description: S1P1 CRE-bla CHOK1 reporter assay, inhibition of Forskolin induced cAMP. The following applies: read-out: S1P1 ACTIVITY; agonist activity range; S1P1 CRE-bla CHOK1 cells, 2 μM Forskolin; tested form: HCl.

Amino acid sequences for entries named in this document (tags omitted).
UniProt P21453, whole entry: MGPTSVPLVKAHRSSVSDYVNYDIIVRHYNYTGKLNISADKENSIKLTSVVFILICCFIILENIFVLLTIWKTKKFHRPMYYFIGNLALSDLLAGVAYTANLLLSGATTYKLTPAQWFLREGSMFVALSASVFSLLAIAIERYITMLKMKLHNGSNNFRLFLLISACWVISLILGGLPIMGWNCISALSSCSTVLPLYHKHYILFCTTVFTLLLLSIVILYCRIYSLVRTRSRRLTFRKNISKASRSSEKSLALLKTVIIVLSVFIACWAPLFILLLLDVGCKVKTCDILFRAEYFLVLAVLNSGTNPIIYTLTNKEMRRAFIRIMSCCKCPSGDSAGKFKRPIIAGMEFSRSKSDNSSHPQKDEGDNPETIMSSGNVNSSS

Structures were worked out from names or drawings and are uncertain.

Drawing on patent US9481659B2, “Selective heterocyclic sphingosine 1 phosphate receptor modulators” (Celgene International II SÀRL, priority 2011, dated 2016), this text covers EC50 for one molecule.

In the case of `CC(C)Oc1ccc(-c2cnc(-c3cccc4c3CC[C@H]4N)s2)cc1C#N`, the EC50 fell in the range of 0.5 to 5 nM.
